Measurements as given in PubChem BioAssay AID493014 (National Center for Advancing Translational Sciences (NCATS), 2011).
The list shows a part of the results. The main result of the screen is listed elsewhere. These columns were measured beside it and carry no call. Most of these compounds were active or inconclusive in the main read-out, so they are no random draw. The note in brackets gives the kind of curve behind each potency; many fits are weak.

Assay: qHTS Assay to Find Inhibitors of Chronic Active B-Cell Receptor Signaling
Conditions: ABC-DLBCL IkBa-CBG/CBR reporter, luminescence ratio (green luciferase fused to IkBa over red control in TMD8 lymphoma cells), 4 h; measured here: CBR red luminescence, cell number
Procedure, shortened: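 Concentration-response series (up to 46 uM) were applied to TMD8 dual-reporter cells for 4 h at 37C with doxycycline. Green/red ratio, after filter-overlap correction, defined %Activity; red signal alone was normalised to basal cells and zero luminescence.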

Row | SMILES | AC50
1 | Nc1nc(NCCOCCO)nc(Nc2cccc(F)c2)c1[N+](=O)[O-] | 35.5 µM [falling, single point]
2 | CCc1cc(SC#N)cc(C)c1NC(=O)CCl | 6.51 µM [rising, single point]
3 | O=C(CN1CCCC1)Nc1c(C(=O)C2CC2)oc2ccccc12 | 2.82 µM [falling, single point]
4 | CC(C)Oc1ccc(/C(O)=C2/C(=O)C(=O)N(CCN(C)C)C2c2cccs2)cc1 (configuration not stated) | 29.1 µM [falling, single point]
5 | COc1ccc(CNC(=O)CCS(=O)(=O)Cc2ccc(C)cc2)c(OC)c1 | 28.2 µM [rising, partial curve, poor fit]
6 | Cc1cc(S(=O)(=O)Nc2cc(C)c(O)c(C)c2)c(C)s1 | 32.6 µM [falling, single point]
7 | O=C1NCCN/C1=C\C(=O)c1ccc(Cl)cc1 | 10 µM [falling, partial curve]
8 | CC1(C)NC(=O)N(CC(O)COc2cccc(F)c2)C1=O (configuration not stated) | 9.2 µM [rising, partial curve, poor fit]
9 | CCOC(=O)Cc1nnc(Nc2ccc(C)cc2C)c2ccccc12 | 29.1 µM [rising, single point]
10 | CCc1cc[n+](-c2nc3ccccc3nc2[N-]S(=O)(=O)c2ccc(Br)s2)cc1 | 23.1 µM [falling, single point]
11 | O=C(CSCc1ccccc1Cl)N/N=C/c1ccco1 | 1.58 µM [rising, partial curve, poor fit]
12 | CCOc1ccccc1N1Cc2ccccc2C1 | 4.11 µM [falling, full curve, poor fit]
13 | C=CCc1cccc2ccc(=O)oc12 | 8.2 µM [rising, partial curve, poor fit]
14 | COc1cc(C(=O)NC2CCN(C)CC2)ccc1Nc1ncc2c(n1)N(C1CCC(O)CC1)CCC(=O)N2C (configuration not stated) | 16.4 µM [rising, single point]
15 | Cc1cccc(C)c1NC(=O)C[N+](C)(C)CC(O)COc1cccc2ccccc12 (configuration not stated) | 4.47 µM [rising, single point]
16 | Cc1ccc(NS(=O)(=O)c2ccc(OCC(=O)NCc3cccnc3)cc2)cc1 | 20.6 µM [rising, partial curve, poor fit]

Fetched one by one from above:
Row | SMILES | AC50
16 | Cc1ccc(NS(=O)(=O)c2ccc(OCC(=O)NCc3cccnc3)cc2)cc1 | 20.6 µM [rising, partial curve, poor fit]
1 | Nc1nc(NCCOCCO)nc(Nc2cccc(F)c2)c1[N+](=O)[O-] | 35.5 µM [falling, single point]

The results go on.

Row | SMILES | AC50
17 | COc1cccc(N2CC(=O)N(NC(=O)c3sc4nc(C)cc(C)c4c3N)CC2=O)c1 | 14.1 µM [falling, partial curve, poor fit]
18 | COc1ccc(NC(=O)C(=O)NNC(=O)c2ccc(Cl)cc2Cl)cc1 | 35.5 µM [falling, single point]
19 | O=C(N/N=C/c1ccc(-c2cccc(C(F)(F)F)c2)o1)c1cccc(F)c1 | 23.1 µM [falling, partial curve]
20 | c1ccc(OCc2cc(-c3ccccc3)no2)cc1 | 35.5 µM [falling, single point]
21 | COc1cc(COCC(O)CN2CCN(CCN3C(=O)c4cccc5cccc(c45)C3=O)CC2)cc(OC)c1OC (configuration not stated) | 1.03 µM [rising, full curve, poor fit]
22 | CCOC(=O)c1ccc(NC(=O)CN(C)S(=O)(=O)c2ccc(Br)s2)cc1 | 16.4 µM [falling, partial curve]
23 | COc1ccc(CC(=O)NCCCc2ccccc2)cc1OC | 35.5 µM [rising, single point]
24 | O=C(N/N=C/c1ccc(N2CCOCC2)cc1)c1ccc(O)cc1 | 8.91 µM [falling, partial curve]
25 | O=C(Nc1nc2c(F)cccc2s1)c1ccc2c(c1)OCCO2 | 1.58 µM [falling, full curve, poor fit]
26 | CCn1c(C)cc(/C=C2/SC(=O)N(CC(=O)N3CCCC3)C2=O)c1C | 14.1 µM [rising, single point]
27 | COc1ccc(Br)cc1C(=O)Nc1cccc2ncccc12 | 15.8 µM [rising, single point]
28 | Nc1nonc1-n1nnc(C(=O)N/N=C/c2ccc(Cl)cc2Cl)c1CN1CCCC1 | 0.631 µM [falling, partial curve, poor fit]
29 | CCOC(=O)c1cccnc1SCC(=O)Nc1ccc(C)cc1 | 0.282 µM [rising, full curve, poor fit]
30 | O=C(NCc1ccccc1)c1cc2ccc(O)cc2oc1=O | 10 µM [falling, partial curve, poor fit]
31 | CCOC(=O)C1CCN(C(=O)c2cccs2)CC1 | 0.631 µM [rising, full curve, poor fit]
32 | O=C(/C=C\c1ccc2c(c1)OCO2)NC1(C(=O)Nc2ccc3c(c2)OCO3)CCCCC1 | 14.6 µM [falling, partial curve, poor fit]
